Measured values published in publication PMC4901263.

Columns and labels:
[1] = biological target: Flag-NS5A (from HCV-JFH1, genotype 2a) (hepatitis C virus JFH1 (genotype 2a)); experiment: co-IP; HEK293T cells co-transfected with tagged CIDEB and a tagged HCV protein; lysis buffer 50 mM Tris pH 7.4, 150 mM NaCl, 0.5% NP-40, 1.0 mM EDTA; IP with anti-Flag, anti-HA or anti-GFP antibody and protein A/G beads at 4 °C; blot with anti-HA, anti-Flag or anti-NS3
[2] = biological target: NS5A with domain II deleted, in pGBKT7 (hepatitis C virus genotype 2a (strain not named)); experiment: two-hybrid; Yeast mating: AH109 with NS5A constructs in pGBKT7, Y187 with CIDEB constructs in pGADT7; growth on SD/-Trp/-Leu/-His/-Ade and SD/-Trp/-Leu/-His with 2 mM 3-AT, 30 °C, 5 to 8 d
[3] = biological target: NS5A with domain III deleted, in pGBKT7 (hepatitis C virus genotype 2a (strain not named)); experiment: as above
[4] = biological target: NS5A-EGFP of HCV-Jc1EGFP (hepatitis C virus Jc1 (adapted HCV-Jc1EGFP)); experiment: co-IP; HCV-Jc1EGFP-infected Huh7.5.1 cells transfected with pReceiver-Flag-CIDEB; exogenous Flag-CIDEB with NS5A-EGFP of the virus
[5] = biological target: Flag-Core (hepatitis C virus (strain not stated)); experiment: co-IP; HEK293T cells co-transfected with tagged CIDEB and a tagged HCV protein; lysis buffer 50 mM Tris pH 7.4, 150 mM NaCl, 0.5% NP-40, 1.0 mM EDTA; IP with anti-Flag, anti-HA or anti-GFP antibody and protein A/G beads at 4 °C; blot with anti-HA, anti-Flag or anti-NS3

B1: HA-CIDEB (Mus musculus) (protein, UniProt O70303 1-219)
chain: MEYLSAFNPNGLLRSVSTVSSELSRRVWNSAPPPQRPFRVCDHKRTVRKGLTAASLQELLDKVLETLLLRGVLTLVLEEDGTAVDSEDFFQLLEDDTCLMVLEQGQSWSPKSGMLSYGLGREKPKHSKDIARITFDVYKQNPRDLFGSLNVKATFYGLYSMSCDFQGVGPKRVLRELLRWTSSLLQGLGHMLLGISSTLRHVVEGADRWQWHGQRHLHS
binding [1]: no binding

B2: CIDEB in pGADT7 (activation-domain fusion) (protein, UniProt Q9UHD4 1-219)
chain: MEYLSALNPSDLLRSVSNISSEFGRRVWTSAPPPQRPFRVCDHKRTIRKGLTAATRQELLAKALETLLLNGVLTLVLEEDGTAVDSEDFFQLLEDDTCLMVLQSGQSWSPTRSGVLSYGLGRERPKHSKDIARFTFDVYKQNPRDLFGSLNVKATFYGLYSMSCDFQGLGPKKVLRELLRWTSTLLQGLGHMLLGISSTLRHAVEGAEQWQQKGRLHSY
binding [2]: no binding
binding [3]: binds

B3: Flag-CIDEB (in HCV-Jc1EGFP-infected Huh7.5.1 cells) (protein, UniProt Q9UHD4 1-219)
chain: MEYLSALNPSDLLRSVSNISSEFGRRVWTSAPPPQRPFRVCDHKRTIRKGLTAATRQELLAKALETLLLNGVLTLVLEEDGTAVDSEDFFQLLEDDTCLMVLQSGQSWSPTRSGVLSYGLGRERPKHSKDIARFTFDVYKQNPRDLFGSLNVKATFYGLYSMSCDFQGLGPKKVLRELLRWTSTLLQGLGHMLLGISSTLRHAVEGAEQWQQKGRLHSY
binding [4]: binds

B4: HA-CIDEB (Homo sapiens), cell-death-inducing DFFA-like effector B (protein, UniProt Q9UHD4 1-219)
chain: MEYLSALNPSDLLRSVSNISSEFGRRVWTSAPPPQRPFRVCDHKRTIRKGLTAATRQELLAKALETLLLNGVLTLVLEEDGTAVDSEDFFQLLEDDTCLMVLQSGQSWSPTRSGVLSYGLGRERPKHSKDIARFTFDVYKQNPRDLFGSLNVKATFYGLYSMSCDFQGLGPKKVLRELLRWTSTLLQGLGHMLLGISSTLRHAVEGAEQWQQKGRLHSY
binding [1]: binds

B5: CIDEB (tagged form used in Fig. S2a not shown) (protein, UniProt Q9UHD4 1-219)
chain: MEYLSALNPSDLLRSVSNISSEFGRRVWTSAPPPQRPFRVCDHKRTIRKGLTAATRQELLAKALETLLLNGVLTLVLEEDGTAVDSEDFFQLLEDDTCLMVLQSGQSWSPTRSGVLSYGLGRERPKHSKDIARFTFDVYKQNPRDLFGSLNVKATFYGLYSMSCDFQGLGPKKVLRELLRWTSTLLQGLGHMLLGISSTLRHAVEGAEQWQQKGRLHSY
binding [5]: no binding

Results are given in words; binding and its absence hold for the method and conditions named. For part of these data: A result given as binding can be weak or reduced; the word gives no strength. Tags and fused reporters may be left off the sequences shown. For part of these data: Binding seen in cells or lysates may run through a third protein.
